B1: Palladin (protein, UniProt Q8WX93 1-1383, looked up)
Palladin: MSGTSSHESFYDSLSDMQEESKNTDFFPGLSAFLSQEEINKSLDLARRAIADSETEDFDSEKEISQIFSTSPASLCEHPSHKETKLGEHASRRPQDNRSTPVQPLAEKQTKSISSPVSKRKPAMSPLLTRPSYIRSLRKAEKRGAKTPSTNVKPKTPHQRKGGPQSQLCDKAANLIEELTSIFKAAKPRNRSPNGESSSPDSGYLSPKNQPSALLSASASQSPMEDQGEMEREVKSPGARHCYQDNQDLAVPHNRKSHPQPHSALHFPAAPRFIQKLRSQEVAEGSRVYLECRVTGNPTPRVRWFCEGKELHNTPDIQIHCEGGDLHTLIIAEAFEDDTGRYTCLATNPSGSDTTSAEVFIEGASSTDSDSESLAFKSRAGAMPQAQKKTTSVSLTIGSSSPKTGVTTAVIQPLSVPVQQVHSPTSYLCRPDGTTTAYFPPVFTKELQNTAVAEGQVVVLECRVRGAPPLQVQWFRQGSEIQDSPDFRILQKKPRSTAEPEEICTLVIAETFPEDAGIFTCSARNDYGSATSTAQLVVTSANTENCSYESMGESNNDHFQHFPPPPPILETSSLELASKKPSEIQQVNNPELGLSRAALQMQFNAAERETNGVHPSRGVNGLINGKANSNKSLPTPAVLLSPTKEPPPLLAKPKLDPLKLQQLQNQIRLEQEAGARQPPPAPRSAPPSPPFPPPPAFPELAACTPPASPEPMSALASRSAPAMQSSGSFNYARPKQFIAAQNLGPASGHGTPASSPSSSSLPSPMSPTPRQFGRAPVPPFAQPFGAEPEAPWGSSSPSPPPPPPPVFSPTAAFPVPDVFPLPPPPPPLPSPGQASHCSSPATRFGHSQTPAAFLSALLPSQPPPAAVNALGLPKGVTPAGFPKKASRTARIASDEEIQGTKDAVIQDLERKLRFKEDLLNNGQPRLTYEERMARRLLGADSATVFNIQEPEEETANQEYKVSSCEQRLISEIEYRLERSPVDESGDEVQYGDVPVENGMAPFFEMKLKHYKIFEGMPVTFTCRVAGNPKPKIYWFKDGKQISPKSDHYTIQRDLDGTCSLHTTASTLDDDGNYTIMAANPQGRISCTGRLMVQAVNQRGRSPRSPSGHPHVRRPRSRSRDSGDENEPIQERFFRPHFLQAPGDLTVQEGKLCRMDCKVSGLPTPDLSWQLDGKPVRPDSAHKMLVRENGVHSLIIEPVTSRDAGIYTCIATNRAGQNSFSLELVVAAKEAHKPPVFIEKLQNTGVADGYPVRLECRVLGVPPPQIFWKKENESLTHSTDRVSMHQDNHGYICLLIQGATKEDAGWYTVSAKNEAGIVSCTARLDVYTQWHQQSQSTKPKKVRPSASRYAALSDQGLDIKAAFQPEANPSHLTLNTALVESEDL
B2: PDZ and LIM domain protein 1 (protein, UniProt O00151 2-329, looked up)
PDZ and LIM domain protein 1: TTQQIDLQGPGPWGFRLVGGKDFEQPLAISRVTPGSKAALANLCIGDVITAIDGENTSNMTHLEAQNRIKGCTDNLTLTVARSEHKVWSPLVTEEGKRHPYKMNLASEPQEVLHIGSAHNRSAMPFTASPASSTTARVITNQYNNPAGLYSSENISNFNNALESKTAASGVEANSRPLDHAQPPSSLVIDKESEVYKMLQEKQELNEPPKQSTSFLVLQEILESEEKGDPNKPSGFRSVKAPVTKVAASIGNAQKLPMCDKCGTGIVGVFVKLRDRHRHPECYVCTDCGTNLKQKGHFFVEDQIYCEKHARERVTPPEGYEVVTVFPK
B3: Peptidyl-prolyl cis-trans isomerase FKBP3 (protein, UniProt Q00688 2-224, looked up)
Peptidyl-prolyl cis-trans …: AAAVPQRAWTVEQLRSEQLPKKDIIKFLQEHGSDSFLAEHKLLGNIKNVAKTANKDHLVTAYNHLFETKRFKGTESISKVSEQVKNVKLNEDKPKETKSEETLDEGPPKYTKSVLKKGDKTNFPKKGDVVHCWYTGTLQDGTVFDTNIQTSAKKKKNAKPLSFKVGVGKVIRGWDEALLTMSKGEKARLEIEPEWAYGKKGQPDAKIPPNAKLTFEVELVDID
B4: Periaxin (protein, UniProt Q9BXM0 1-1461, looked up)
Periaxin: MEARSRSAEELRRAELVEIIVETEAQTGVSGINVAGGGKEGIFVRELREDSPAARSLSLQEGDQLLSARVFFENFKYEDALRLLQCAEPYKVSFCLKRTVPTGDLALRPGTVSGYEIKGPRAKVAKLNIQSLSPVKKKKMVPGALGVPADLAPVDVEFSFPKFSRLRRGLKAEAVKGPVPAAPARRRLQLPRLRVREVAEEAQAARLAAAAPPPRKAKVEAEVAAGARFTAPQVELVGPRLPGAEVGVPQVSAPKAAPSAEAAGGFALHLPTLGLGAPAPPAVEAPAVGIQVPQVELPALPSLPTLPTLPCLETREGAVSVVVPTLDVAAPTVGVDLALPGAEVEARGEAPEVALKMPRLSFPRFGARAKEVAEAKVAKVSPEARVKGPRLRMPTFGLSLLEPRPAAPEVVESKLKLPTIKMPSLGIGVSGPEVKVPKGPEVKLPKAPEVKLPKVPEAALPEVRLPEVELPKVSEMKLPKVPEMAVPEVRLPEVELPKVSEMKLPKVPEMAVPEVRLPEVQLLKVSEMKLPKVPEMAVPEVRLPEVQLPKVSEMKLPEVSEVAVPEVRLPEVQLPKVPEMKVPEMKLPKVPEMKLPEMKLPEVQLPKVPEMAVPDVHLPEVQLPKVPEMKLPEMKLPEVKLPKVPEMAVPDVHLPEVQLPKVPEMKLPKMPEMAVPEVRLPEVQLPKVSEMKLPKVPEMAVPDVHLPEVQLPKVCEMKVPDMKLPEIKLPKVPEMAVPDVHLPEVQLPKVSEIRLPEMQVPKVPDVHLPKAPEVKLPRAPEVQLKATKAEQAEGMEFGFKMPKMTMPKLGRAESPSRGKPGEAGAEVSGKLVTLPCLQPEVDGEAHVGVPSLTLPSVELDLPGALGLQGQVPAAKMGKGERVEGPEVAAGVREVGFRVPSVEIVTPQLPAVEIEEGRLEMIETKVKPSSKFSLPKFGLSGPKVAKAEAEGAGRATKLKVSKFAISLPKARVGAEAEAKGAGEAGLLPALDLSIPQLSLDAHLPSGKVEVAGADLKFKGPRFALPKFGVRGRDTEAAELVPGVAELEGKGWGWDGRVKMPKLKMPSFGLARGKEAEVQGDRASPGEKAESTAVQLKIPEVELVTLGAQEEGRAEGAVAVSGMQLSGLKVSTAGQVVTEGHDAGLRMPPLGISLPQVELTGFGEAGTPGQQAQSTVPSAEGTAGYRVQVPQVTLSLPGAQVAGGELLVGEGVFKMPTVTVPQLELDVGLSREAQAGEAATGEGGLRLKLPTLGARARVGGEGAEEQPPGAERTFCLSLPDVELSPSGGNHAEYQVAEGEGEAGHKLKVRLPRFGLVRAKEGAEEGEKAKSPKLRLPRVGFSQSEMVTGEGSPSPEEEEEEEEEGSGEGASGRRGRVRVRLPRVGLAAPSKASRGQEGDAAPKSPVREKSPKFRFPRVSLSPKARSGSGDQEEGGLRVRLPSVGFSETGAPGPARMEGAQAAAV
B5: Polymerase delta-interacting protein 3 (protein, UniProt Q9BY77 2-421, looked up)
Polymerase delta-interacting …: ADISLDELIRKRGAAAKGRLNARPGVGGVRSRVGIQQGLLSQSTRTATFQQRFDARQKIGLSDARLKLGVKDAREKLLQKDARFRIKGKVQDAREMLNSRKQQTTVPQKPRQVADAREKISLKRSSPAAFINPPIGTVTPALKLTKTIQVPQQKAMAPLHPHPAGMRINVVNNHQAKQNLYDLDEDDDGIASVPTKQMKFAASGGFLHHMAGLSSSKLSMSKALPLTKVVQNDAYTAPALPSSIRTKALTNMSRTLVNKEEPPKELPAAEPVLSPLEGTKMTVNNLHPRVTEEDIVELFCVCGALKRARLVHPGVAEVVFVKKDDAITAYKKYNNRCLDGQPMKCNLHMNGNVITSDQPILLRLSDSPSMKKESELPRRVNSASSSNPPAEVDPDTILKALFKSSGASVTTQPTEFKIKL
B6: POU domain, class 3, transcription factor 3 (protein, UniProt P20264 1-500, looked up)
POU domain, class 3, …: MATAASNPYLPGNSLLAAGSIVHSDAAGAGGGGGGGGGGGGGGAGGGGGGMQPGSAAVTSGAYRGDPSSVKMVQSDFMQGAMAASNGGHMLSHAHQWVTALPHAAAAAAAAAAAAVEASSPWSGSAVGMAGSPQQPPQPPPPPPQGPDVKGGAGRDDLHAGTALHHRGPPHLGPPPPPPHQGHPGGWGAAAAAAAAAAAAAAAAHLPSMAGGQQPPPQSLLYSQPGGFTVNGMLSAPPGPGGGGGGAGGGAQSLVHPGLVRGDTPELAEHHHHHHHHAHPHPPHPHHAQGPPHHGGGGGGAGPGLNSHDPHSDEDTPTSDDLEQFAKQFKQRRIKLGFTQADVGLALGTLYGNVFSQTTICRFEALQLSFKNMCKLKPLLNKWLEEADSSTGSPTSIDKIAAQGRKRKKRTSIEVSVKGALESHFLKCPKPSAQEITNLADSLQLEKEVVRVWFCNRRQKEKRMTPPGIQQQTPDDVYSQVGTVSADTPPPHHGLQTSVQ
B7: PR domain zinc finger protein 8 (protein, UniProt Q9NQV8 1-689, looked up)
PR domain zinc finger protein …: MEDTGIQRGIWDGDAKAVQQCLTDIFTSVYTTCDIPENAIFGPCVLSHTSLYDSIAFIALKSTDKRTVPYIFRVDTSAANGSSEGLMWLRLVQSARDKEEQNLEAYIKNGQLFYRSLRRIAKDEELLVWYGKELTELLLLCPSRSHNKMNGSSPYTCLECSQRFQFEFPYVAHLRFRCPKRLHSADISPQDEQGGGVGTKDHGGGGGGGKDQQQQQQEAPLGPGPKFCKAGPLHHYPSPSPESSNPSAAAGGSSAKPSTDFHNLARELENSRGGSSCSPAQSLSSGSGSGGGGGHQEAELSPDGIATGGGKGKRKFPEEAAEGGGGAGLVGGRGRFVERPLPASKEDLVCTPQQYRASGSYFGLEENGRLFAPPSPETGEAKRSAFVEVKKAARAASLQEEGTADGAGVASEDQDAGGGGGSSTPAAASPVGAEKLLAPRPGGPLPSRLEGGSPARGSAFTSVPQLGSAGSTSGGGGTGAGAAGGAGGGQGAASDERKSAFSQPARSFSQLSPLVLGQKLGALEPCHPADGVGPTRLYPAAADPLAVKLQGAADLNGGCGSLPSGGGGLPKQSPFLYATAFWPKSSAAAAAAAAAAAAGPLQLQLPSALTLLPPSFTSLCLPAQNWCAKCNASFRMTSDLVYHMRSHHKKEYAMEPLVKRRREEKLKCPICNESFRERHHLSRHMTSHN

Assay: Composition of amniotic fluid cell-derived ECM by mass spectrometry (total spectra count)
Details: amniotic fluid cell-derived ECM Matrix A, mass spectrometry; label = protein component
With B1 the “Total Spectra Count Matrix A” value was 0. With B2 the “Total Spectra Count Matrix A” value was 0. In the case of B3, the “Total Spectra Count Matrix A” value is reported as 0. In the case of B4, the “Total Spectra Count Matrix A” value is reported as 0. For B5, the “Total Spectra Count Matrix A” value was 0. With B6 the “Total Spectra Count Matrix A” value was 0. With B7 the “Total Spectra Count Matrix A” value was 0.

Same assay, conditions: amniotic fluid cell-derived ECM Matrix B, mass spectrometry; label = protein component
With B1 the “Total Spectra Count Matrix B” value was 7. With B2 the “Total Spectra Count Matrix B” value was 0. In the case of B3, the “Total Spectra Count Matrix B” value is reported as 8. For B4, the “Total Spectra Count Matrix B” value was 0. With B5 the “Total Spectra Count Matrix B” value was 6. In the case of B6, the “Total Spectra Count Matrix B” value is reported as 20. In the case of B7, the “Total Spectra Count Matrix B” value is reported as 2.

Same assay, conditions: amniotic fluid cell-derived ECM Matrix C, mass spectrometry; label = protein component
For B1, the “Total Spectra Count Matrix C” value was 0. For B2, the “Total Spectra Count Matrix C” value was 0. For B3, the “Total Spectra Count Matrix C” value was 0. For B4, the “Total Spectra Count Matrix C” value was 0. For B5, the “Total Spectra Count Matrix C” value was 0. With B6 the “Total Spectra Count Matrix C” value was 0. In the case of B7, the “Total Spectra Count Matrix C” value is reported as 0.

Same assay, conditions: amniotic fluid cell-derived ECM Matrix D, mass spectrometry; label = protein component
With B1 the “Total Spectra Count Matrix D” value was 6. For B2, the “Total Spectra Count Matrix D” value was 4. With B3 the “Total Spectra Count Matrix D” value was 0. With B4 the “Total Spectra Count Matrix D” value was 2. In the case of B5, the “Total Spectra Count Matrix D” value is reported as 0. For B6, the “Total Spectra Count Matrix D” value was 0. In the case of B7, the “Total Spectra Count Matrix D” value is reported as 0.

From patent publication US11220671B2, “Methods for the maturation of cardiomyocytes on amniotic fluid cell-derived ECM, cellular constructs, and uses for cardiotoxicity and proarrhythmic screening of drug compounds” (STEMBIOSYS, INC., priority 2019, dated 2022)
